Functional effect data for one sequence are collected here from patent publication US20070148773.

This data set relates to IHF. The experiment in a line: activity in cells. To be noted: IHF preincubated with attB/attP substrate stimulates wild-type Int intramolecular recombination (1.26% without IHF); intermolecular 13.94 vs 3.47%; purified recombinant protein.

Consider “TCTGTTACAGGTCACTAATACCATCTAAGTAGTTGATTCATAGTGACTGCATATGTTGTGTTTTACAGTATTATGTAGTCTGTTTTTTATGCAAAATCTAATTTAATATATTGATATTTATATCATTTTACGTTTCTCGTTCAGCTTTTTTATACTAAGTTGGCATTATAAAAAAGCATTGCTTATCAATTTGTTGCAACGAACAGGTCACTATCAGTCAAAATAAAATCATTATTTGATTTC (double strand) [attP]”, for which the functional effect came to 7.93 % GFP+ cells.
